Taken from: PubChem BioAssay AID743454 (Peter MacCallum Cancer Centre, 2014)
Aim: 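Genes whose loss kills vorinostat-resistant colon cancer cells under vorinostat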 (primary screen). Cell system: human HCT116-VR colon cancer cells, selected for vorinostat resistance. Reagents: siRNA pool against human genes, 40 nM siRNA pool. Duration: vorinostat for 24 h, read-out about 72 h after transfection. Challenge: vorinostat at 2.5 µM final. Measurement: 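Two measures, CellTiter-Fluor viability and luminescent caspase 3/7 activity, each as fold change against same-plate mock wells, mean of duplicates, then screen-wide robust z-score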. Reading the numbers: viability robust z-score: higher = more viable cells than screen typical; caspase robust z-score: higher = more caspase 3/7 activity than screen typical. Hit rule: 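Hits are knock-downs in viability class RV1/RV2 or caspase class CA1/CA2, excluding ones that killed cells in the no-drug cell-count arm; hits then retested with single siRNAs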.
The whole screen tested about 18,000 reagents; this is a random part of them. Of all reagents, 450 (2.5%) got an active call. 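Single biological run; no consistent viability z cut-off exists, so the class columns, not z-scores, define the calls.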

| target | viability hit class | caspase hit class | viability robust z-score | caspase robust z-score | outcome |
| --- | --- | --- | --- | --- | --- |
| STPG4 (GeneID 285051) | no change | no change | 0.26 | -0.46 | inactive |
| MMP25 (GeneID 64386) | no change | no change | -0.63 | 0.16 | inactive |
| PCDHGA8 (GeneID 9708) | no change | no change | 1.38 | -0.39 | inactive |
| CHRNA7 (GeneID 1139) | RV2 (reduced viability) | no change | -2.91 | -0.62 | active |
| CXCR1 (GeneID 3577) | no change | no change | -1.38 | -0.86 | inactive |
| SLC6A4 (GeneID 6532) | no change | no change | -0.74 | -0.14 | inactive |
| CCNDBP1 (GeneID 23582) | no change | no change | 1.46 | -0.14 | inactive |
| DUS3L (GeneID 56931) | no change | no change | -0.79 | 3.08 | inactive |
| RNF183 (GeneID 138065) | no change | CA2 (caspase activation) | -1.02 | 6.48 | active |
| ZNF80 (GeneID 7634) | no change | no change | 0.2 | -0.16 | inactive |
| GET4 (GeneID 51608) | no change | no change | -0.26 | 3.44 | inactive |
| TMTC1 (GeneID 83857) | no change | no change | -0.36 | 0.97 | inactive |
| OSTF1 (GeneID 26578) | no change | no change | -0.32 | -1.27 | inactive |
| MCRIP2 (GeneID 84331) | no change | no change | 1.09 | 1.17 | inactive |
| DNMBP (GeneID 23268) | no change | no change | -0.17 | 0.38 | inactive |
| PPP2CB (GeneID 5516) | no change | no change | -0.84 | 1.24 | inactive |
| PKN3 (GeneID 29941) | no change | no change | -0.8 | -1 | inactive |
| GIGYF1 (GeneID 64599) | no change | no change | -0.26 | -0.57 | inactive |
| RRAS2 (GeneID 22800) | no change | no change | -0.04 | -0.35 | inactive |
| HDHD5 (GeneID 27440) | no change | no change | 0.33 | 0.62 | inactive |
| RTP3 (GeneID 83597) | no change | no change | -0.08 | 0.57 | inactive |
| BOLA2B (GeneID 654483) | no change | no change | 0.86 | -0.85 | inactive |
| PSPHP1 (GeneID 8781) | no change | no change | -1.01 | 3.5 | inactive |
